PubChem BioAssay AID1671195 – Yale University – 2021

- Aim: 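Knockdowns that increase or decrease uptake of fluorescent LDL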 (primary screen)
- Cell system: human Huh7 hepatoma cells
- Knock-down reagent: siRNA pool against human genes, 18 nM
- Time to read-out: about 2 to 2.5 days of knockdown, then 8 h LDL uptake
- Conditions: DiI-labelled LDL at 30 µg/ml for 8 h, in lipoprotein-deficient serum medium
- Measured: 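Fluorescent LDL signal imaged in cells, scaled to the plate median, robust z-score for each replicate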
- Reading the numbers: robust z-score: higher = more LDL uptake after knockdown
- Active means: 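Active when two or more replicates show a robust z-score above 2 or below -2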
This is a random part of about 22,000 reagents tested. About 1,510 of all reagents (6.9%) were called active. 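Active includes knockdowns raising or lowering LDL uptake; positive z-scores mean more uptake, negative mean less.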

target | robust z-score, replicate 1 | robust z-score, replicate 2 | robust z-score, replicate 3 | activity call
FLJ35816 (retired record) | -0.418 | -0.612 | 0.137 | inactive
ATP8B3 (ATPase phospholipid transporting 8B3) | 1.21 | 0.249 | 0.983 | inactive
BICRAL (BICRA like chromatin remodeling complex associated protein) | -0.233 | 1.14 | 0.0795 | inactive
RBM6 (RNA binding motif protein 6) | -0.207 | 0.679 | -0.124 | inactive
HIRIP3 (HIRA interacting protein 3) | -1.12 | -0.429 | -0.31 | inactive
ZNF701 (zinc finger protein 701) | -2.31 | -1.97 | -1.72 | active
SCGB1D2 (secretoglobin family 1D member 2) | -1.28 | -1.87 | -0.719 | inactive
LOC388887 (retired record) | -0.991 | -1.29 | -1.38 | inactive
LRIF1 (ligand dependent nuclear receptor interacting factor 1) | -0.758 | -1.2 | -1.07 | inactive
LOC402237 (retired record) | -0.933 | 0.249 | 0.135 | inactive
SLC30A5 | 1.09 | 0.714 | 0.553 | inactive
LOC389212 (retired record) | 0.0552 | -0.196 | 0.0156 | inactive
DYRK3 (dual specificity tyrosine phosphorylation regulated kinase 3) | 0.337 | 0.567 | 0.277 | inactive
MAPK8IP2 (mitogen-activated protein kinase 8 interacting protein 2) | -0.674 | -0.35 | -1.37 | inactive
CHST4 (carbohydrate sulfotransferase 4) | -1.18 | -1.04 | -1.88 | inactive
NFAT5 (nuclear factor of activated T cells 5) | 0.721 | 0.118 | 0.0565 | inactive
FAM30A (family with sequence similarity 30 member A) | 0.407 | 1.38 | 0.418 | inactive
PINX1 (PIN2 (TERF1) interacting telomerase inhibitor 1) | 0.46 | 0.0616 | 1.98 | inactive
AHCYL2 (adenosylhomocysteinase like 2) | 0.329 | 0.0305 | 0.49 | inactive
ATXN7 (ataxin 7) | 1.66 | 0.484 | -0.0251 | inactive
SOCS3 (suppressor of cytokine signaling 3) | 0.424 | 2.23 | 0.632 | inactive
LOC147942 (retired record) | -0.258 | -0.00478 | -0.129 | inactive
LOC441048 (retired record) | 1.01 | 0.0352 | -0.266 | inactive

9 successive entries from above:
target | robust z-score, replicate 1 | robust z-score, replicate 2 | robust z-score, replicate 3 | activity call
CHST4 (carbohydrate sulfotransferase 4) | -1.18 | -1.04 | -1.88 | inactive
NFAT5 (nuclear factor of activated T cells 5) | 0.721 | 0.118 | 0.0565 | inactive
FAM30A (family with sequence similarity 30 member A) | 0.407 | 1.38 | 0.418 | inactive
PINX1 (PIN2 (TERF1) interacting telomerase inhibitor 1) | 0.46 | 0.0616 | 1.98 | inactive
AHCYL2 (adenosylhomocysteinase like 2) | 0.329 | 0.0305 | 0.49 | inactive
ATXN7 (ataxin 7) | 1.66 | 0.484 | -0.0251 | inactive
SOCS3 (suppressor of cytokine signaling 3) | 0.424 | 2.23 | 0.632 | inactive
LOC147942 (retired record) | -0.258 | -0.00478 | -0.129 | inactive
LOC441048 (retired record) | 1.01 | 0.0352 | -0.266 | inactive

The list goes on:
target | robust z-score, replicate 1 | robust z-score, replicate 2 | robust z-score, replicate 3 | activity call
DHX58 (DExH-box helicase 58) | 0.0113 | -0.331 | -0.462 | inactive
PVALB (parvalbumin) | 0.192 | 0.798 | 0.272 | inactive
TNPO1 (transportin 1) | 0.172 | -0.0449 | -0.0414 | inactive
COL5A1 (collagen type V alpha 1 chain) | -0.116 | 0.917 | 1.73 | inactive
EZH1 (enhancer of zeste 1 polycomb repressive complex 2 subunit) | -0.0641 | 0.0593 | 1.53 | inactive
SCMH1 (Scm polycomb group protein homolog 1) | -2.2 | -0.616 | -2.05 | active
SPATA41 (spermatogenesis associated 41) | 0.393 | 0.613 | 0.386 | inactive
ARFRP1 (ARF related protein 1) | -0.635 | 2.32 | 0.472 | inactive
LOC400134 (retired record) | 0.493 | -0.0915 | 0.111 | inactive
NDUFB6 (NADH:ubiquinone oxidoreductase subunit B6) | 1.2 | 1.48 | 1.04 | inactive
C21orf114 (retired record) | 1.42 | 2.16 | 1.72 | inactive
ARHGAP17 (Rho GTPase activating protein 17) | 2.73 | 3.55 | 3.11 | active
PEX11A (peroxisomal biogenesis factor 11 alpha) | 1.01 | 0.343 | -0.679 | inactive
C3AR1 (complement C3a receptor 1) | 1.21 | 1.08 | 0.727 | inactive
CSMD3 (CUB and Sushi multiple domains 3) | -0.695 | -2.13 | -1.57 | inactive
TMEM185A (transmembrane protein 185A) | 0.877 | 0.55 | 1.11 | inactive
LINC01565 (long independently transcribed non-coding RNA 1565) | -1.36 | -2.24 | -0.941 | inactive
ZNF226 (zinc finger protein 226) | 0.681 | 0.0837 | 0.0568 | inactive
MTFR2 (mitochondrial fission regulator 2) | -0.0275 | -0.507 | -0.485 | inactive
ENAH (ENAH actin regulator) | 0.973 | 1.98 | -0.0849 | inactive
CHRNB3 (cholinergic receptor nicotinic beta 3 subunit) | -0.514 | -0.636 | -0.773 | inactive
LOC440746 (retired record) | -0.686 | -0.476 | -0.881 | inactive
AR (androgen receptor) | 0.933 | -0.247 | 1.02 | inactive
PDPN (podoplanin) | -0.761 | -1.29 | 0.199 | inactive
TANK (TRAF family member associated NFKB activator) | -0.62 | -0.602 | -0.994 | inactive
ZNF26 (zinc finger protein 26) | 0.35 | -0.0306 | 0.966 | inactive
LOC391105 (retired record) | -0.368 | -0.342 | -0.825 | inactive
TOR1AIP1 (torsin 1A interacting protein 1) | -1.85 | -0.863 | -0.503 | inactive
CCL5 (C-C motif chemokine ligand 5) | 1.38 | 1.2 | 1.3 | inactive
G6PC1 (glucose-6-phosphatase catalytic subunit 1) | 0.101 | -0.192 | -0.123 | inactive
DPPA5 (developmental pluripotency associated 5) | 2.98 | 2.63 | 2.8 | active
SMTNL2 (smoothelin like 2) | -0.0107 | -0.0581 | -0.305 | inactive
CSF3R (colony stimulating factor 3 receptor) | 1.44 | 0.709 | 1.21 | inactive
CABCOCO1 (ciliary associated calcium binding coiled-coil 1) | 0.346 | 0.000689 | 0.664 | inactive
GLI3 (GLI family zinc finger 3) | -0.676 | -0.12 | -0.333 | inactive
PTMS (parathymosin) | -0.813 | -0.765 | -0.809 | inactive
HCRTR1 (hypocretin receptor 1) | 0.0657 | -0.268 | 0.114 | inactive
PGAP1 (post-GPI attachment to proteins inositol deacylase 1) | 1.74 | 1.06 | 0.937 | inactive
RNF157 (ring finger protein 157) | -0.882 | -1.23 | 0.207 | inactive
LOC389328 (retired record) | -0.642 | -0.143 | -0.607 | inactive
CAVIN1 (caveolae associated protein 1) | -0.59 | -0.5 | -0.12 | inactive
AGRN (agrin) | 0.142 | 0.27 | 0.18 | inactive
ZNF285 (zinc finger protein 285) | -0.452 | -0.385 | -0.222 | inactive
CT47A11 (cancer/testis antigen family 47 member A11) | -0.634 | -0.7 | -0.658 | inactive
NDEL1 (nudE neurodevelopment protein 1 like 1) | -0.316 | 0.227 | -0.0284 | inactive
